Structures can show the parent of a compound that is named as a salt. The list shows a part of the results. This data set is noisy: repeats of one test often differ as much as different tests do.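 The human kidney-derived cells carry a stably integrated construct of eight TEAD-binding elements driving luciferase, read by luminescence in a drug-repurposing library screen. A compound counts as a hit when its signal is more than five robust Z scores above the plate mean.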

The assay concerns HEK293A TEAD-LUC reporter. Put plainly: TEAD-luciferase reporter activity (YAP activation), robust Z score vs plate; higher = stronger YAP/TEAD activation. The following applies: 24 h. For orientation: A reporter such as luciferase makes a cellular process visible.

With `O=C(c1ccccc1)c1cc2c(cc1O)C(C(=O)O)CC2` (centres undefined), the TEAD-luciferase reporter activity by setting is: (compound concentration: 200 nM) inactive: -0.706; (compound concentration: 2 uM) inactive: -0.726; (compound concentration: 10 uM) inactive: -1.
In the case of `NC(=O)Cc1cnc2cc(OCc3cccc(F)c3)ccc2c1`, the TEAD-luciferase reporter activity by setting is: (compound concentration: 200 nM) inactive: -0.263; (compound concentration: 2 uM) inactive: -0.612; (compound concentration: 10 uM) active: 5.36.
The matching figures for `NCC[C@H](Oc1ccc(C(F)(F)F)cc1)c1ccccc1`: inactive: -2.69, inactive: -1.88 and inactive: 0.787.
On to `CO/N=C(\C(=O)N[C@@H]1C(=O)N2C(C(=O)O)=C(COC(N)=O)CS[C@H]12)c1ccco1` [Cefuroxime sodium salt], for which the TEAD-luciferase reporter activity (compound concentration: 200 nM) was inactive: -1 and the TEAD-luciferase reporter activity (compound concentration: 10 uM) is inactive: -1.44.
Take `CO/N=C(\C(=O)N[C@@H]1C(=O)N2C(C(=O)O)=C(COC(N)=O)CS[C@H]12)c1ccco1` [cefuroxime]: the TEAD-luciferase reporter activity (compound concentration: 2 uM) is inactive: 0.521.
As for `COc1ccccc1[C@@H]1CCN(Cc2ccc(=O)n(C(C)C)c2)C1`, the TEAD-luciferase reporter activity runs as follows: (compound concentration: 200 nM) inactive: -0.319; (compound concentration: 2 uM) inactive: -0.629; (compound concentration: 10 uM) inactive: -1.49.
The like results for `Cc1coc2c1c(C)cc1oc(=O)cc(C)c12` were, in that order, inactive: -0.0695, inactive: -0.861 and inactive: -0.29.
With `COC(=O)c1c(-c2cc(OC)c(OC)c(OC)c2)c2ccnc(OCc3ncccn3)c2c(=O)n1Cc1ccnc(C)c1`, the TEAD-luciferase reporter activity reads like this: (compound concentration: 200 nM) inactive: -0.499; (compound concentration: 2 uM) inactive: -1.28; (compound concentration: 10 uM) inactive: 0.632.
As to `COc1ccc(NC(=O)N2CCCCN3[C@H](CN(C)C)[C@H](c4ccc(C#Cc5ccccc5)cc4)[C@@H]3C2)cc1`, the TEAD-luciferase reporter activity is, setting by setting: (compound concentration: 200 nM) inactive: 0.881; (compound concentration: 2 uM) inactive: -0.837; (compound concentration: 10 uM) inactive: -0.43.
The like results for `CC(C)(O)c1cn(-c2ccc(-c3cc(F)c(CO)c(S(C)(=O)=O)c3)cc2F)c(C(C)(C)c2c(Cl)cccc2Cl)n1` were, in that order, inactive: 0.297, inactive: 1.36 and inactive: -0.444.
The like results for `COc1ccc(N2CCOCC2)c2sc(NC(=O)N3CCC(C)(O)CC3)nc12` [tozadenant] were, in that order, inactive: -0.0693, inactive: -1.57 and inactive: -0.81.
The like results for `NC1(C(=O)O)CCc2cc(C(=O)O)ccc21` (centres undefined) were, in that order, inactive: 0.797, inactive: -1.39 and inactive: -0.951.
`NCC[C@H](O)C(=O)N[C@@H]1C[C@H](N)[C@@H](O[C@H]2O[C@H](CN)[C@@H](O)[C@H](O)[C@H]2O)[C@H](O)[C@H]1O[C@H]1O[C@H](CO)[C@@H](O)[C@H](N)[C@H]1O` [Amikacin]: the TEAD-luciferase reporter activity was inactive: -1 (compound concentration: 200 nM), inactive: 1.01 (compound concentration: 2 uM) and inactive: -1.04 (compound concentration: 10 uM).
Regarding `NS(=O)(=O)c1cc(C(=O)NN2C[C@@H]3[C@H]4CC[C@H](C4)[C@@H]3C2)ccc1Cl`, the TEAD-luciferase reporter activity (compound concentration: 200 nM) is inactive: 0.459, the TEAD-luciferase reporter activity (compound concentration: 2 uM) is inactive: 0.606 and the TEAD-luciferase reporter activity (compound concentration: 10 uM) is inactive: 1.61.
The matching figures for `Cc1ccc(OCC(O)CNC(C)(C)C)c2oc(=O)ccc12` (centres undefined) [bucumolol]: inactive: 0.282, inactive: -0.592 and inactive: 1.52.
Regarding `N#CC(c1ccc(Cl)cc1)c1c(Cl)cc(-n2ncc(=O)[nH]c2=O)cc1Cl` (centres undefined), the TEAD-luciferase reporter activity is, setting by setting: (compound concentration: 200 nM) inactive: -1.53; (compound concentration: 10 uM) inactive: 2.11.
`N#CC(c1ccc(Cl)cc1)c1c(Cl)cc(-n2ncc(=O)[nH]c2=O)cc1Cl` (centres undefined) [Diclazuril]: for the setting “compound concentration: 2 uM”, the TEAD-luciferase reporter activity was inactive: -0.407.
As to `Cc1cc(SCc2sc(-c3ccc(C(F)(F)F)cc3)nc2C)ccc1OCC(=O)O`, the TEAD-luciferase reporter activity by setting is: (compound concentration: 200 nM) inactive: -2.62; (compound concentration: 2 uM) inactive: -0.911; (compound concentration: 10 uM) inactive: -1.1.
For the compound `C=CC(=O)N1C[C@H](COc2nc(Nc3cnn(C)c3)nc3[nH]cc(Cl)c23)[C@@H](OC)C1`, the TEAD-luciferase reporter activity is inactive: -0.656 (compound concentration: 200 nM), inactive: -1.12 (compound concentration: 2 uM) and inactive: -0.238 (compound concentration: 10 uM).
The matching figures for `CCCC[C@H](NC(=O)[C@@H]1[C@@H]2[C@H](CN1C(=O)[C@@H](NC(=O)NC1(CS(=O)(=O)C(C)(C)C)CCCCC1)C(C)(C)C)C2(C)C)C(=O)C(=O)NC1CC1` [narlaprevir]: inactive: -0.617, inactive: -0.0402 and inactive: -1.89.
For `O=C(c1ccccc1F)N1CCC(N2CCCNC2=O)CC1`, the TEAD-luciferase reporter activity is inactive: 1.54 (compound concentration: 200 nM) and inactive: 0.634 (compound concentration: 10 uM).
Regarding `CN(C)[C@@H]1C(=O)C(C(N)=O)C(=O)[C@@]2(O)C(=O)C3C(=O)c4c(O)cccc4C[C@H]3C[C@@H]12` (some centres undefined), the TEAD-luciferase reporter activity is, setting by setting: (compound concentration: 200 nM) inactive: -1.79; (compound concentration: 2 uM) inactive: -0.822; (compound concentration: 10 uM) inactive: 1.33.
Turning to `C[C@H](N)C(=O)N[C@@H](C)P(=O)(O)O` [alafosfalin], the TEAD-luciferase reporter activity is, setting by setting: (compound concentration: 200 nM) inactive: 2.24; (compound concentration: 2 uM) inactive: -1.07; (compound concentration: 10 uM) inactive: -0.849.
The matching figures for `Cc1nn2ccccc2c1C(=O)C1=CNCCC1`: inactive: 0.163, inactive: -1.16 and inactive: -0.695.
Turning to `N[C@@H](CSCCCO)C(=O)O` [fudosteine], the TEAD-luciferase reporter activity is inactive: -0.956 (compound concentration: 200 nM), inactive: -0.865 (compound concentration: 2 uM) and inactive: -0.245 (compound concentration: 10 uM).
Turning to `COc1c2occc2c(OC)c2c(=O)cc(C)oc12`, the TEAD-luciferase reporter activity (compound concentration: 200 nM) was inactive: -1.69 and the TEAD-luciferase reporter activity (compound concentration: 10 uM) is inactive: -1.01.
For `COc1c2occc2c(OC)c2c(=O)cc(C)oc12` [Khellin], the TEAD-luciferase reporter activity (compound concentration: 2 uM) was inactive: 1.
Regarding `O=C1OC(=O)C2C3CCC(O3)C12` (centres undefined) [Norcantharidin], the TEAD-luciferase reporter activity was inactive: 0.699 (compound concentration: 200 nM), inactive: 1.58 (compound concentration: 2 uM) and inactive: -0.236 (compound concentration: 10 uM).
